# Test results taken from PubChem BioAssay AID540303 (National Center for Advancing Translational Sciences (NCATS), 2011).
# In all, about 330,000 compounds went through this assay and about 1,000 (0.3%) were called active. The shares of active, inactive and inconclusive entries below differ from those in the screen. The call rests on the fitted dose curve; in most records, active means well fitted inhibition curve with a large enough effect; inconclusive means small, poorly fitted or top-dose-only effect; inactive means no such curve, though single readings can be large or run the other way; tested in mouse RAW 264.7 cells. Potencies of inconclusive entries are doubtful fits and often do not repeat. The source holds several records for some structures; these can differ, active in one and inactive in another.
# Assay: qHTS for Inhibitors of Cell Surface uPA Generation; further: nearly all actives have a fitted effect of over 55% in size
# Settings: cell surface uPA generation assay; series mostly up to 38.3 µM
# Method in brief: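 Validation set in qHTS format. RAW 264.7 cells were pre-plated overnight and then exposed to compounds (up to 38.3 uM final) for 24 h at 37 C in 5% CO2, followed by a luminescent ATP-Lite measurement.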
# Potency means the concentration at half of the fitted maximal effect.
row,SMILES,Potency
1,COc1ccc(CCNC(=O)c2ccccc2Cl)cc1OC,"inconclusive: 0.0126 µM [inhibitor, full curve, poor fit]"
2,COc1ccc(-c2csc(NC(=O)CSc3nc(SC)ns3)n2)cc1,"inconclusive: 25.1 µM [inhibitor, partial curve, poor fit]"
3,CC(NC(=O)c1cn(C)c2ccc(S(=O)(=O)N3CCCC3)cc2c1=O)c1ccccc1 (stereo not given),inactive
4,O=C(Nc1nnc(-c2ccc(F)cc2)o1)c1ccco1,"inconclusive: 22.4 µM [inhibitor, single point]"
5,Cc1ccc(OCC(=O)Nc2ccc(O)c(C(=O)O)c2)cc1C,inactive
6,Cc1cc(C)c2sc(N(CCCN(C)C)C(=O)c3ccc(S(=O)(=O)N(C)Cc4ccccc4)cc3)nc2c1,"inconclusive: 31.6 µM [inhibitor, partial curve, poor fit]"
7,CCCC/C(C)=N/NC(=O)c1cn(-c2ccccc2)nc1-c1ccccc1,"inconclusive: 8.91 µM [inhibitor, single point]"
8,Nc1nc(Nc2ccccc2F)nc(NCc2ccco2)c1[N+](=O)[O-],"inconclusive: 14.1 µM [inhibitor, partial curve, poor fit]"
9,COc1ccc(-c2csc(Nc3ccc(C)cn3)n2)cc1OC,"inconclusive: 12.6 µM [inhibitor, single point]"
10,O=C(C1=C[C@@H](c2ccc(Br)cc2)C[C@@H](OCCCCO)O1)N1CCN(Cc2ccc3c(c2)OCO3)CC1,"inconclusive: 8.91 µM [inhibitor, single point]"
11,CC(C)c1ccc(NC(=O)CCS(=O)(=O)c2cccc3nonc23)cc1,inactive
12,CN1C(=O)/C(=C/c2cccc(Cl)c2)Sc2ccc(C(=O)N3CCCC3)cc21,"inconclusive: 2.24 µM [inhibitor, partial curve, poor fit]"
13,O=[N+]([O-])c1cn(Cc2ccccc2)cn1,"inconclusive: 4.47 µM [inhibitor, partial curve, poor fit]"
14,Cc1cc(C)n(CCC(=O)N/N=C/c2ccccc2O)n1,"inconclusive: 28.2 µM [inhibitor, single point]"
15,Cc1ccc(-c2nc(C(=O)NCC3CCCO3)cc3c2[nH]c2ccccc23)cc1 (stereo not given),"inconclusive: 28.2 µM [inhibitor, single point]"
16,C=CCN=c1scc(-c2ccccc2)n1/N=C/c1ccccn1,active: 0.398 µM
17,CCN(CCCNC(=O)Cn1ncc2c(=O)oc3ccccc3c21)c1cccc(C)c1,inactive
18,O=C(c1cc(COc2ccc(F)cc2Cl)on1)N1C[C@H]2CC[C@H]1C2,inactive
19,O=[N+]([O-])c1cc(Br)c(Nc2ccccc2)c([N+](=O)[O-])c1,"inconclusive: 5.01 µM [inhibitor, single point]"
20,Fc1ccccc1-c1nc2ccccc2[nH]1,"inconclusive: 22.4 µM [inhibitor, partial curve, poor fit]"
21,Cc1cc(/C=C2/NC(=S)NC2=O)c(C)n1-c1cccnc1,"inconclusive: 5.01 µM [inhibitor, partial curve, poor fit]"
22,O=C(N/N=C1\CC(c2ccccc2)Oc2ccccc21)c1ccc(O)cc1 (stereo not given),inactive

row,SMILES,Potency
1,Cc1nc(CS(=O)(=O)c2ccc(Cl)cc2)cc(Sc2ccc(Cl)cc2)n1,inactive
2,O=C(/C=C/c1ccc(Br)cc1)c1ccc(NC2=NCCCS2)cc1,"inconclusive: 8.91 µM [inhibitor, partial curve, poor fit]"
3,CCCc1ccc(S(=O)(=O)N2CCN(C(C)C(=O)NCc3ccccc3)CC2)cc1 (stereo not given),"inconclusive: 3.55 µM [inhibitor, partial curve, poor fit]"
4,CCOc1ccccc1N1CC(O)=C(c2nc3ccccc3s2)C1=N,"inconclusive: 1 µM [inhibitor, full curve, poor fit]"
5,COC(=O)C1C(=O)c2c([nH]c(C(=O)OCCSC)c2C)CC1C (stereo not given),"inconclusive: 10 µM [inhibitor, partial curve]"
6,CN(C)c1ccc(/C=C/c2cc[n+](C)cc2)cc1,inactive
7,Cc1cc(C)cc(NS(=O)(=O)c2ccc(NC(=S)NC(=O)c3cccs3)cc2)c1,inactive
8,O=C(CN1C(=O)NC2(CCOc3ccccc32)C1=O)c1ccc(Cl)s1 (stereo not given),inactive
9,COc1ccc(N(CC(=O)Nc2cc(Cl)ccc2C)S(=O)(=O)c2c(C)noc2C)cc1,"inconclusive: 1.26 µM [inhibitor, single point]"
10,CCn1c(SC(C)C(=O)N2CCOCC2)nc2sc(C)c(C)c2c1=O (stereo not given),"inconclusive: 1.41 µM [inhibitor, partial curve, poor fit]"
11,Oc1ccc(-c2cccc(-c3ccc(O)cc3)c2)cc1,"inconclusive: 8.91 µM [inhibitor, partial curve, poor fit]"
12,COc1cccc(N/C=C/C(=O)c2ccc(C)cc2)c1,active: 8.91 µM
13,COc1ccc(C2=Nn3c(nnc3-c3ccccc3OC)SC2)cc1OC1CCCC1,"inconclusive: 0.794 µM [inhibitor, full curve, poor fit]"
14,CC(=O)Nc1ccc(-c2c(C)cc3oc(=O)cc(-c4ccccc4)c3c2C)cc1,"inconclusive: 10 µM [inhibitor, single point]"
15,CCn1c(O)c(N=Nc2ccc3ccccc3n2)c2ccccc21,inactive
16,Cc1nn(-c2ccccc2)c2nc(N)c(C#N)c(-c3ccc(F)cc3)c12,inactive
17,COc1cc(OC)cc(C(=O)NC(C(=O)Nc2ccc3nc(C)sc3c2)C(C)C)c1 (stereo not given),"inconclusive: 0.316 µM [inhibitor, full curve, poor fit]"
18,COc1ccc2c(c1)C(=O)N1[C@H]3c4cc(C)ccc4OC[C@@H]3[C@H](c3ccccc3)[C@]1(C)C(=O)N2,"inconclusive: 7.94 µM [inhibitor, partial curve, poor fit]"
19,Cc1c(/C=N\NC(=O)c2cc3ccccc3o2)c2ccccc2n1C,active: 3.55 µM
20,CCNC(=S)NNC(=O)c1ccoc1C,inactive
21,Cc1ccc(C)c(NC(=S)N=Nc2c(O)n(C)c3ccc(S(=O)(=O)N4CCOCC4)cc23)c1,"inconclusive: 0.891 µM [inhibitor, full curve, poor fit]"
22,O=C(NCc1ccc(F)cc1)c1cnn2ccccc12,"inconclusive: 22.4 µM [inhibitor, single point]"

# Given with bars between the fields: part of the list above
row | SMILES | Potency
2 | O=C(/C=C/c1ccc(Br)cc1)c1ccc(NC2=NCCCS2)cc1 | inconclusive: 8.91 µM [inhibitor, partial curve, poor fit]
13 | COc1ccc(C2=Nn3c(nnc3-c3ccccc3OC)SC2)cc1OC1CCCC1 | inconclusive: 0.794 µM [inhibitor, full curve, poor fit]

# Following part

row,SMILES,Potency
1,O=[N+]([O-])c1cc(-c2nnc(Nc3ccccc3)c3ccccc23)ccc1N1CCOCC1,"inconclusive: 28.2 µM [inhibitor, single point]"
2,COc1ccccc1NC(=O)Nc1ccc(C(=O)N2CCCCC2)cc1,"inconclusive: 8.91 µM [inhibitor, single point]"
3,CCc1ccc(S(=O)(=O)Nc2cc3c(cc2N2CCOCC2)n(C)c(=O)c(=O)n3C)cc1,"inconclusive: 7.08 µM [inhibitor, partial curve, poor fit]"
4,Cc1ccc(S(=O)(=O)N(C)C)cc1NC(=O)COC(=O)/C=C/c1ccc2ccccc2n1,"inconclusive: 5.01 µM [inhibitor, partial curve, poor fit]"
5,CCS(=O)(=O)N1Cc2ccccc2CC1C(=O)Nc1nc2ccccc2s1 (stereo not given),"inconclusive: 28.2 µM [inhibitor, single point]"
6,Cc1ccccc1-c1cc(C(=O)NCc2ccco2)n(CC2CC(c3cccnc3)=NO2)n1 (stereo not given),"inconclusive: 7.94 µM [inhibitor, partial curve, poor fit]"
7,CCCCC#Cc1cncc(C(=O)N/N=C/c2cccc(OC)c2)c1,"inconclusive: 15.8 µM [inhibitor, single point]"
8,COCCn1nnnc1C(c1ccc(C)cc1)N1CCN(Cc2ccc3c(c2)OCO3)CC1 (stereo not given),inactive
9,O=C(c1ccc(OC2CCN(CCc3ccccc3)CC2)cc1)N1CCCC1,inactive
10,CCOC(=O)Nc1ccc2c(c1)N(C(=O)N1CCN(C)CC1)c1ccccc1CC2,"inconclusive: 7.94 µM [inhibitor, partial curve, poor fit]"
11,CCc1ccc(-c2nc(CS(=O)CC(=O)NCCCN3CCC(C)CC3)c(C)o2)cc1 (stereo not given),"inconclusive: 11.2 µM [inhibitor, partial curve, poor fit]"
12,Cc1ccc(C(=O)CCC(=O)Nc2ccccc2F)cc1,"inconclusive: 0.501 µM [inhibitor, full curve, poor fit]"
13,COc1ccc2[nH]c(C)c(CCN(Cc3cccs3)C(=S)Nc3cccc(F)c3)c2c1,"inconclusive: 12.6 µM [inhibitor, single point]"
14,CCOc1ccc(C(=O)CC(C(=O)O)N2CCCCC2)cc1 (stereo not given),"inconclusive: 31.6 µM [inhibitor, partial curve, poor fit]"
15,CC(=O)Cc1cc(O)c2ccccc2c1OC(=O)c1ccc(Br)cc1,"inconclusive: 11.2 µM [inhibitor, partial curve, poor fit]"
16,CC(C)C(=O)N1CCN(c2ccc(NC(=O)c3cccs3)cc2Cl)CC1,inactive
17,Cc1c(C(=O)Nc2ccccc2)cnn1-c1ccccc1,"inconclusive: 7.94 µM [inhibitor, partial curve, poor fit]"
18,CN(C)CCNC(=O)c1ccc2c(c1)N(Cc1ccc(F)cc1)CCS2,inactive
19,CCn1cc(SCC(=O)NC2CCCC2)c2ccccc21,"inconclusive: 5.01 µM [inhibitor, single point]"
20,CC(C)(C)c1ccc(-c2nnc(SCC(=O)NC3CC3)o2)cc1,"inconclusive: 12.6 µM [inhibitor, partial curve]"
21,CCN(c1ccc(NC(=O)c2ccc(Cl)nc2)cc1)C(C)C,"inconclusive: 12.6 µM [inhibitor, partial curve, poor fit]"

# 3 records drawn at random from the list so far, as already listed:
row,SMILES,Potency
12,Cc1ccc(C(=O)CCC(=O)Nc2ccccc2F)cc1,"inconclusive: 0.501 µM [inhibitor, full curve, poor fit]"
17,Cc1c(C(=O)Nc2ccccc2)cnn1-c1ccccc1,"inconclusive: 7.94 µM [inhibitor, partial curve, poor fit]"
11,CCc1ccc(-c2nc(CS(=O)CC(=O)NCCCN3CCC(C)CC3)c(C)o2)cc1 (stereo not given),"inconclusive: 11.2 µM [inhibitor, partial curve, poor fit]"
